This is an account of results in article PMC7948500, “Comparative interactomes of HSF1 in stress and disease reveal a role for CTCF in HSF1-mediated gene regulation” (The Journal of Biological Chemistry, 2020).

These are yes or no findings as the source states them, for the method shown. In cells and extracts the contact can be indirect. Sequences can lack the tags named with a protein.

In the experiment the target is HSF1 ΔN1. Description: co-IP; FLAG pull-down on anti-FLAG M2 magnetic beads from stable HSF1-knockdown 293T cells transfected with HA-CTCF and FLAG-HSF1 wildtype or truncations; immunoblot with anti-HA. A general note: Immunoblotting shows a protein as a band on a membrane.

B1: hemagglutinin-tagged CTCF (protein, UniProt P49711 1-727)
chain: MEGDAVEAIVEESETFIKGKERKTYQRRREGGQEEDACHLPQNQTDGGEVVQDVNSSVQMVMMEQLDPTLLQMKTEVMEGTVAPEAEAAVDDTQIITLQVVNMEEQPINIGELQLVQVPVPVTVPVATTSVEELQGAYENEVSKEGLAESEPMICHTLPLPEGFQVVKVGANGEVETLEQGELPPQEDPSWQKDPDYQPPAKKTKKTKKSKLRYTEEGKDVDVSVYDFEEEQQEGLLSEVNAEKVVGNMKPPKPTKIKKKGVKKTFQCELCSYTCPRRSNLDRHMKSHTDERPHKCHLCGRAFRTVTLLRNHLNTHTGTRPHKCPDCDMAFVTSGELVRHRRYKHTHEKPFKCSMCDYASVEVSKLKRHIRSHTGERPFQCSLCSYASRDTYKLKRHMRTHSGEKPYECYICHARFTQSGTMKMHILQKHTENVAKFHCPHCDTVIARKSDLGVHLRKQHSYIEQGKKCRYCDAVFHERYALIQHQKSHKNEKRFKCDQCDYACRQERHMIMHKRTHTGEKPYACSHCDKTFRQKQLLDMHFKRYHDPNFVPAAFVCSKCGKTFTRRNTMARHADNCAGPDGVEGENGGETKKSKRGRKRKMRSKKEDSSDSENAEPDLDDNEDEEEPAVEIEPEPEPQPVTPAPPPAKKRRGRPPGRTNQPKQNQPTAIIQVEDQNTGAIENIIVEVKKEPDAEPAEGEEEEAQPAATDAPNGDLTPEMILSMMDR
B1: the binding result was “no binding”.
